Patent US20140243227A1, “CULTURE MEDIA FOR STEM CELLS” (Koninklijke Nederlandse Akademie van Wetenschappen, priority 2011, published 2014)
At least one compound was matched to its structure with a doubt left.

Assays:
liver organoid cultures = settings: in addition to EGF+FGF10 or HGF
[1] = tested on: murine small intestine organoids; assay: Forskolin-induced swelling of murine small intestine organoids; format: cell-based, mouse; settings: 5 μM, 5×10^−2 μM, 5×10^−4 μM, DMSO
human colon crypts = assay: Screening of reagents for optimization of human intestinal organoids culture (plating efficiency); format: cell-based; settings: First screening (WENR)

Row | Structure (SMILES) | Result: Alb (liver organoid cultures) | also measured
1 | CC(/C=C/C(=O)NO)=C\[C@@H](C)C(=O)c1ccc(N(C)C)cc1 [TSA] | + | –
2 | C=C[C@@]1(C)CC(=O)[C@]2(O)[C@@]3(C)[C@@H](O)CCC(C)(C)[C@@H]3[C@H](O)[C@H](OC(C)=O)[C@@]2(C)O1 [forskolin] | – | Organoid surface area (swelling) [1]: Dose-dependent increase of surface area
3 | Cc1nc2sccn2c(=O)c1CCN1CCC(=C(c2ccccc2)c2ccc(F)cc2)CC1 [R 59022] | + | –
4 | CCCCC[C@H](O)/C=C/[C@H]1[C@H](O)CC(=O)[C@@H]1C/C=C\CCCC(=O)O [PGE2, prostaglandin E2] | – | Organoid morphology note in Activity column (human colon crypts): Cystic
